Assay results from PubChem BioAssay AID1259354 (Paczesny and Yang Labs, IUPUI and University of Michigan, 2018).
Hit rate of the full screen: of about 78,000 compounds, about 1,800 (2.3%) were called active. The shares of active, inactive and inconclusive entries below differ from those in the screen. Rule as the data show it: active = inhibition above about 30%; inconclusive = mostly about 10% to 28%; inactive = weaker than that.

The chains behind the UniProt entries cited, without tags or fusion partners. Where a name states a change or a piece, a line headed by the entry shows the natural chain unless it says otherwise.
UniProt Q01638: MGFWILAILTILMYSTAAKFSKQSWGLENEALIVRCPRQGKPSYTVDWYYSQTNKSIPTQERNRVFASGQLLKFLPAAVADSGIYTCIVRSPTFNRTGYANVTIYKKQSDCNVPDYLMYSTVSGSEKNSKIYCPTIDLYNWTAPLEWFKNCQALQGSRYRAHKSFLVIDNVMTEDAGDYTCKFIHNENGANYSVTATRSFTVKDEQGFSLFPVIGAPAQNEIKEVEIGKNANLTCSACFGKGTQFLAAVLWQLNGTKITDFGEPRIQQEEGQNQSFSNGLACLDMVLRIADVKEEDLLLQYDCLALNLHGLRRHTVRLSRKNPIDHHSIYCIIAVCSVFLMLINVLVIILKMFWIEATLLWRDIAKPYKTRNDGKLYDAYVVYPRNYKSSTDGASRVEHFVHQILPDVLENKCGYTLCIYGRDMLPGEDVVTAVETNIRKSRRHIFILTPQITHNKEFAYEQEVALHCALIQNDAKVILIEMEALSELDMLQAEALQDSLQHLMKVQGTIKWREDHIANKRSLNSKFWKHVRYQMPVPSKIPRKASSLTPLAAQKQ

These molecules were tested against Interleukin-1 receptor-like 1 (Homo sapiens) (UniProt Q01638) (assay: blocks human ST2 binding to IL-33, primary screen, biochemical, AlphaLISA (AID 1259354)). Settings: AlphaLISA ST2-Fc/biotin-IL-33 interaction, 1 h; at 17 µM, stronger effect = higher value.
`COc1ccc(C2C3=C(CCCC3=O)Nc3nc(SCc4ccccc4F)nn32)cc1OC` (stereo not drawn) was tested, and the inhibition was inconclusive: 11%.
In the case of `CC(C)N1CC(OCc2ccc(F)cc2)CN(C(=O)c2ccc(-n3cccn3)cc2)CC1=O` (stereo not drawn), the inhibition is reported as inconclusive: 11%.
In the case of `COc1ccc(OCC(=O)Nc2cccc(N3CCCS3(=O)=O)c2)cc1`, the inhibition is reported as inconclusive: 25%.
With `CC(=O)[C@H]1CC[C@H]2[C@@H]3CCC4=CC(=O)CC[C@]4(C)[C@H]3CC[C@]12C` the inhibition was inconclusive: 17%.
`O=C(Nc1ccc(N2CCC(NC(c3ccncc3)c3ccc(Cl)cc3)CC2)cc1)C1CCCC1` (stereo not drawn) was tested, and the inhibition was “inactive”.
For `Cc1ccc(OCCCC(=O)Nc2cccc([N+](=O)[O-])c2)cc1`, the inhibition was inconclusive: 29%.
With `CCC(C)NC(=O)C1(O)c2cc(Br)ccc2NC(=O)N1c1ccc(C)c(C)c1` (stereo not drawn) the inhibition was “inactive”.
`Cc1cnc(NCC2CN(S(C)(=O)=O)CCO2)nc1N(C)C` (stereo not drawn) was tested, and the inhibition was inconclusive: 11%.
In the case of `CC(C)c1nc(CN(C)C(=O)CC2C(=O)NCCN2Cc2ccccc2)no1` (stereo not drawn), the inhibition is reported as inconclusive: 22%.
`O=C(CNS(=O)(=O)c1cccs1)Nc1ccc(Cl)cc1` was tested, and the inhibition was inconclusive: 10%.
`Clc1ccc(Nc2ncnc3ccccc23)cc1` was tested, and the inhibition was “inactive”.
With `CC12CC(NC(=O)N1c1ccccc1)c1cc(Cl)ccc1O2` (stereo not drawn) the inhibition was inconclusive: 13%.
In the case of `COc1cccc(NC(=O)CCC2CCN(C(=O)c3cc(C(C)C)no3)CC2)c1`, the inhibition is reported as inconclusive: 10%.
With `C[C@@H]1O[C@@H](OC2C(Oc3c(-c4ccc(O)cc4)oc4cc(OC5OC(CO)C(O)C(O)C5O)cc(O)c4c3=O)OC(CO)C(O)C2O)[C@H](O)[C@H](O)[C@H]1O` (stereo partly drawn) the inhibition was inconclusive: 12%.
With `Cc1cc(-c2c(-c3ccccc3)ncn2Cc2n[nH]c(=O)c3ccccc23)n[nH]1` the inhibition was inconclusive: 12%.
For `O=C(c1ccc2cc[nH]c2c1)N1CCC2(CCCN(Cc3cccc(F)c3F)C2)C1` (stereo not drawn), the inhibition was inconclusive: 17%.
`C=C1C(O[C@@H]2O[C@H](CO)[C@@H](O)[C@H](O)[C@@H]2O)CC2C(C)(C)C(O)CCC2(C)C1CC/C(C)=C\CO` (stereo partly drawn) was tested, and the inhibition was inconclusive: 11%.
With `COC(=O)c1ccc(F)c(S(=O)(=O)N2CCOCC2)c1` the inhibition was “inactive”.
In the case of `O=C(c1cccc(F)c1)N1CCN(c2cc(N3CCCCC3)c(F)cc2[N+](=O)[O-])CC1`, the inhibition is reported as inconclusive: 23%.
With `COc1ccc2nc(N3CCC(C(=O)N4CCOCC4)CC3)sc2c1` the inhibition was inconclusive: 12%.
For `CC1=C(C)CS(=NS(=O)(=O)c2ccccc2)N(S(=O)(=O)c2ccccc2)C1` (stereo not drawn), the inhibition was inconclusive: 14%.
With `COc1cccc(C(=O)Nc2nnc(-c3ccccc3)s2)c1` the inhibition was “inactive”.
In the case of `CCOc1ccc(C2CC(c3ccc(C)cc3)n3ncnc3N2)cc1` (stereo not drawn), the inhibition is reported as “inactive”.
In the case of `CC1CCN(C(=O)C(NS(=O)(=O)c2ccc3c(c2)oc(=O)n3C)C(C)C)CC1` (stereo not drawn), the inhibition is reported as inconclusive: 23%.
In the case of `Cc1cc(N(C)C)nc(Nc2ccc(NC(=O)c3ccc(F)cc3)cc2)n1`, the inhibition is reported as “inactive”.
`N/C(=N/OC(=O)Oc1ccccc1)c1ccccn1` was tested, and the inhibition was “inactive”.
In the case of `CCN(CC)S(=O)(=O)c1ccc2c(c1)NC(=O)CS2`, the inhibition is reported as “inactive”.
`CC(C)O[C@H]1CN(C(=O)c2cc(Cn3ccc4ccccc43)[nH]n2)C[C@@H]1O` was tested, and the inhibition was “inactive”.
In the case of `COc1ccc(CN2CC[C@H](c3nnc(-c4cccnc4)o3)C2)cc1`, the inhibition is reported as “inactive”.
In the case of `CN1CC(n2cnc(-c3ccccc3)c2-c2ccccc2C(=O)O)CCC1=O` (stereo not drawn), the inhibition is reported as “inactive”.
For `COc1ccc(N2C(=O)C3C(c4ccc(C)cc4)OC4(C(=O)c5ccccc5C4=O)C3C2=O)cc1` (stereo not drawn), the inhibition was “inactive”.
For `COc1cccc(C2C3=C(CC(C)(C)CC3=O)Nc3nc(SC)[nH]c(=O)c32)c1` (stereo not drawn), the inhibition was “inactive”.
For `COc1ccccc1S(=O)(=O)Cc1ccc(C(=O)NC2CCC(C)CC2)o1` (stereo not drawn), the inhibition was inconclusive: 11%.
For `CCCC1C(=O)CC(c2ccccc2)NC1c1ccccc1` (stereo not drawn), the inhibition was inconclusive: 20%.
For `Cc1cccc(-c2cnc(C)nc2C2CCCN(C(=O)c3ccc(N4CCCC4)cc3)C2)c1` (stereo not drawn), the inhibition was inconclusive: 17%.
In the case of `O=[N+]([O-])c1cc(Br)c(O)c(C=Nc2ccc(-c3nc4ncccc4o3)cc2)c1`, the inhibition is reported as inconclusive: 13%.
In the case of `Cc1ccc(S(=O)(=O)N(CC(=O)Nc2cccnc2)c2cc(C)cc(C)c2)cc1`, the inhibition is reported as inconclusive: 10%.
With `NNC(=O)c1ccc(Oc2ccc(C(=O)NN)cc2)cc1` the inhibition was “inactive”.
`Cc1cc2c(cc1C(=O)N1CCOC(c3ccc(Cl)cc3)C1)OCCO2` (stereo not drawn) was tested, and the inhibition was “inactive”.
For `COc1ccc(OC)c(N2C(=O)CC(Sc3nc4ccccc4s3)C2=O)c1` (stereo not drawn), the inhibition was inconclusive: 10%.
With `CN1CCN(CCSc2ccc(Cl)cc2)CC1` the inhibition was “inactive”.
`CC(C)c1cc(C2CCN(C(=O)CC(F)(F)F)CC2)[nH]n1` was tested, and the inhibition was inconclusive: 13%.
For `O=C1CCCC2=C1C(c1cccc(Br)c1)C1=C(CCCC1=O)N2`, the inhibition was inconclusive: 10%.
In the case of `OCCCn1c(-c2ccc(F)cc2)csc1=Nc1ccc(Cl)cc1`, the inhibition is reported as active: 46%.
With `CCn1ccnc1CN(C)Cc1nc(-c2ccc(C(=O)OC)cc2)no1` the inhibition was inconclusive: 10%.
In the case of `CN(C)c1ccc(-c2nnnn2[C@H]2CO[C@H]3[C@@H]2OC[C@@H]3NC(=O)Nc2ccc(Oc3ccccc3)cc2)cc1`, the inhibition is reported as inconclusive: 13%.
In the case of `O=CC1=C(c2ccccc2)Oc2ccccc2O1`, the inhibition is reported as inconclusive: 29%.
`CN1CCC(O)(CNc2ccnc(C(=O)NCc3cccnc3)c2)CC1` was tested, and the inhibition was inconclusive: 14%.
In the case of `CCOc1ccc(N2C(=O)CC(N3CCN(C)CC3)C2=O)cc1` (stereo not drawn), the inhibition is reported as inconclusive: 11%.
`O=C(NCCc1ccccc1Cl)c1ccc(NS(=O)(=O)c2cccs2)cc1` was tested, and the inhibition was inconclusive: 11%.
In the case of `O=C(CN1CCOc2ccccc2C1)NC1CCC(n2cnnc2)CC1` (stereo not drawn), the inhibition is reported as inconclusive: 12%.
In the case of `CCc1ccccc1Nc1nnc(Cc2ccc(Cl)cc2)c(=O)[nH]1`, the inhibition is reported as “inactive”.
With `CN(C)C(=O)C(NS(=O)(=O)NCc1ccccc1)c1ccccc1` (stereo not drawn) the inhibition was “inactive”.
For `CN(C)CCn1c(SCC(N)=O)nc2c(sc3ccccc32)c1=O`, the inhibition was “inactive”.
In the case of `CN(Cc1ccccc1)c1ncccc1CNc1ncccc1Cl`, the inhibition is reported as “inactive”.
`CC(=O)N1c2c(cc(Br)cc2S(=O)(=O)NCc2ccccc2)CC1C` (stereo not drawn) was tested, and the inhibition was inconclusive: 23%.
With `CNC(=O)c1ccc(Cn2c(=O)c3cc(OC)c(OC)cc3n(CC(=O)Nc3cccc(C)c3)c2=O)cc1` the inhibition was inconclusive: 19%.
With `CCOC(=O)CNC(=O)N1CCCC(CNC(=O)c2cccc(C(F)(F)F)c2)C1` (stereo not drawn) the inhibition was inconclusive: 13%.
In the case of `Cc1cccc(-c2noc([C@@H]3C[C@@H](O)CN3Cc3cc4ccccc4o3)n2)c1`, the inhibition is reported as “inactive”.
For `CCc1ccc(CN(C)C(=O)c2cc(=O)c3ccccc3o2)nc1`, the inhibition was inconclusive: 10%.
In the case of `Cn1cnnc1-c1cccc(NS(=O)(=O)c2ccc(F)cc2)c1`, the inhibition is reported as “inactive”.
`Cn1c(=N)n(CC(O)c2ccco2)c2ccccc21` (stereo not drawn) was tested, and the inhibition was inconclusive: 21%.
In the case of `Cn1cc(Cl)c(C(=O)N2CCc3ccccc32)n1`, the inhibition is reported as inconclusive: 11%.
For `O=C(Nc1ccc(S(=O)(=O)Nc2cnc3ccccc3n2)cc1)c1ccccc1F`, the inhibition was “inactive”.
`CC1CCN(C(=O)Cn2cnc3c(cnn3-c3ccc(Cl)cc3)c2=O)CC1` was tested, and the inhibition was “inactive”.
With `COc1cc(C=O)ccc1OCCCOc1ccccc1C(=O)O` the inhibition was “inactive”.
With `c1ccc(Nc2c(-c3ccco3)nc3ccccn23)cc1` the inhibition was inconclusive: 18%.
For `Cc1cc(C)c(S(=O)(=O)N2CCCCC2)cc1S(=O)(=O)N1CCCCC1`, the inhibition was “inactive”.
`O=[N+]([O-])c1cccc(CN2CCC(N3CCCCCC3)CC2)c1` was tested, and the inhibition was “inactive”.
In the case of `O=S(=O)(c1ccccc1)N1CCSC1c1ccc(Br)cc1` (stereo not drawn), the inhibition is reported as inconclusive: 16%.
With `Cc1cccc(C(=O)Nc2nc3c(F)cc(F)cc3s2)c1` the inhibition was inconclusive: 10%.
For `CN1c2ccccc2Oc2nnc(N3CCCCC3)cc21`, the inhibition was inconclusive: 13%.
With `COc1cccc(CN2CC[C@H](c3nnc(C)o3)C2)c1` the inhibition was inconclusive: 19%.
With `O=C1OC(C(=O)Nc2ccc(Cl)cc2)Cc2ccccc21` (stereo not drawn) the inhibition was “inactive”.
In the case of `O=C(c1ccc(F)cc1)N1C[C@@H]2C[C@H](C1)c1ccc(-c3cccc(C(F)(F)F)c3)c(=O)n1C2`, the inhibition is reported as inconclusive: 19%.
For `CN1CCCNC1c1ccc(-c2ccc([N+](=O)[O-])cc2)o1` (stereo not drawn), the inhibition was inconclusive: 18%.
In the case of `COc1cc([N+](=O)[O-])cc(CN2CCN(C/C=C/c3ccccc3)CC2)c1O`, the inhibition is reported as inconclusive: 20%.
With `COC(=O)C1(Cc2ccc(O)cc2)OC(=O)C(OC)=C1c1ccc(O)cc1` (stereo not drawn) the inhibition was inconclusive: 10%.
With `O=C1OC(c2ccc(Br)cc2)=N/C1=C\N1CCC(C(=O)O)CC1` the inhibition was inconclusive: 17%.
`COC(=O)c1c(C)oc2ccc(OC(=O)c3ccc(OC)cc3)cc12` was tested, and the inhibition was inconclusive: 11%.
For `Cc1nc2c(C(=O)NCCCN3CCCC3)cnn2c(C)c1Cc1ccccc1`, the inhibition was “inactive”.
In the case of `O=C1c2cccnc2CN1CCC(c1ccccc1)c1ccco1` (stereo not drawn), the inhibition is reported as inconclusive: 22%.
`CC(=O)O[C@@H]1C[C@@H](C)[C@](O)(CCC2=CC(=O)OC2)[C@@]2(C)CCCC(C)(C)C12` (stereo partly drawn) was tested, and the inhibition was inconclusive: 15%.
`O=C1Nc2cc(C(=O)N3CCN(Cc4ccccc4)CC3)ccc2SC1N1CCOCC1` (stereo not drawn) was tested, and the inhibition was inconclusive: 19%.
For `COc1ccc(N2C(=O)C3CC=CCC3C2=O)c(OC)c1` (stereo not drawn), the inhibition was “inactive”.
With `Nc1ccc(C(=O)Nc2ccccc2)c(N)c1` the inhibition was “inactive”.
`CCOC(=O)CSc1nc2c(c(=O)n1-c1ccc(Br)cc1)SCC2` was tested, and the inhibition was inconclusive: 13%.
In the case of `Brc1ccc2c(c1)C1CC(c3ccco3)=NN1C(c1cccs1)O2` (stereo not drawn), the inhibition is reported as inconclusive: 16%.
With `CC(c1ccccn1)N(C)Cc1ccc(C#CC(C)(C)O)s1` (stereo not drawn) the inhibition was “inactive”.
With `O=C(Nc1nc(-c2ccc3ccccc3c2)cs1)c1ccc(S(=O)(=O)N2CCCCC2)cc1` the inhibition was inconclusive: 14%.
In the case of `O=C1CSc2ccc(C(=O)NCc3ccc(F)cc3)cc2N1`, the inhibition is reported as “inactive”.
With `O=C(O)CCc1ccc(-c2cccs2)o1` the inhibition was inconclusive: 15%.
For `CCn1c(-c2ccc(OC)c(F)c2)csc1=Nc1ccccc1`, the inhibition was active: 73%.
